PubChem BioAssay AID504764 | Drosophila RNAi Screening Center | 2011
Aim: 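Knock-downs that raise or lower a Notch target reporter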 (primary screen). Cell system: Drosophila Kc167 cells. Knock-down reagent: long dsRNA against Drosophila genes. Duration: about 5 days (4 days dsRNA, then 24 h after transfection). Challenge: transfection of constitutively active membrane-tethered Notch lacking the extracellular domain, read 24 h later. Measurement: 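Firefly luciferase from an E(spl)m3 reporter with active Notch, plus control-promoter and uninduced reporter wells for normalisation; unnormalised counts, duplicate wells a and b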. Scale: induced reporter light, run 1, well a and induced reporter light, run 1, well b: higher = more light from the Notch target reporter with active Notch; control promoter light, run 1, well a and control promoter light, run 1, well b: higher = more light from the viral control promoter (cell number, transfection, viability); uninduced reporter light, run 1, well a: higher = more light from the Notch target reporter without active Notch. Active means: 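Hit if the duplicate-averaged log2 ratio of induced to control-promoter light gives a plate-wise z beyond ±2, or induced to uninduced beyond ±1.8; weak-control or discordant-duplicate wells dropped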. Meaning of the calls: active = modifier hit (raised or lowered Notch signal); inactive = not a hit.
The deposit covers about 22,000 reagents; this is a random part of those with a known target gene and a result. Of all reagents, 403 (1.9%) got an active call. 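Unnormalised raw counts per well; ratio z-scores behind the hit calls and whether each hit raises or lowers signal are not deposited.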 Reagents against one gene are numbered here. No sequences are given here. Not given: the amount of reagent.

With Ilp7, what was measured?
induced reporter light, run 1, well a: 1.84e5; induced reporter light, run 1, well b: 1.79e5; control promoter light, run 1, well a: 3.24e5; control promoter light, run 1, well b: 3.57e5; uninduced reporter light, run 1, well a: 11935; Call: inactive

What did the screen give for CG13332?
induced reporter light, run 1, well a: 1.01e5; induced reporter light, run 1, well b: 1.15e5; control promoter light, run 1, well a: 1.76e5; control promoter light, run 1, well b: 1.72e5; uninduced reporter light, run 1, well a: 11165; Call: inactive

With Mfap1, what was measured?
induced reporter light, run 1, well a: 48020; induced reporter light, run 1, well b: 43620; control promoter light, run 1, well a: 65385; control promoter light, run 1, well b: 76120; uninduced reporter light, run 1, well a: 2950; Call: inactive

For boi #1, how do the results read?
induced reporter light, run 1, well a: 1.41e5; induced reporter light, run 1, well b: 1.25e5; control promoter light, run 1, well a: 2.11e5; control promoter light, run 1, well b: 2.20e5; uninduced reporter light, run 1, well a: 8540; Call: inactive

For boi #2, how do the results read?
induced reporter light, run 1, well a: 1.12e5; induced reporter light, run 1, well b: 1.18e5; control promoter light, run 1, well a: 2.35e5; control promoter light, run 1, well b: 2.43e5; uninduced reporter light, run 1, well a: 9010; Call: inactive

What is on record for CG1979?
induced reporter light, run 1, well a: 1.56e5; induced reporter light, run 1, well b: 1.42e5; control promoter light, run 1, well a: 1.07e5; control promoter light, run 1, well b: 96315; uninduced reporter light, run 1, well a: 11065; Call: inactive

For Arl2, what does the deposit list?
induced reporter light, run 1, well a: 1.30e5; induced reporter light, run 1, well b: 1.37e5; control promoter light, run 1, well a: 1.44e5; control promoter light, run 1, well b: 1.08e5; uninduced reporter light, run 1, well a: 5505; Call: inactive

What did the screen give for igl?
induced reporter light, run 1, well a: 57875; induced reporter light, run 1, well b: 1.20e5; control promoter light, run 1, well a: 2.01e5; control promoter light, run 1, well b: 3.15e5; uninduced reporter light, run 1, well a: 10660; Call: inactive

Which result is listed for G6P?
induced reporter light, run 1, well a: 1.45e5; induced reporter light, run 1, well b: 1.29e5; control promoter light, run 1, well a: 1.38e5; control promoter light, run 1, well b: 1.14e5; uninduced reporter light, run 1, well a: 10305; Call: inactive

How did the screen score CG33704?
induced reporter light, run 1, well a: 1.16e5; induced reporter light, run 1, well b: 85035; control promoter light, run 1, well a: 96515; control promoter light, run 1, well b: 1.18e5; uninduced reporter light, run 1, well a: 10070; Call: inactive

How did the screen score CG6304?
induced reporter light, run 1, well a: 2.08e5; induced reporter light, run 1, well b: 2.29e5; control promoter light, run 1, well a: 2.21e5; control promoter light, run 1, well b: 1.77e5; uninduced reporter light, run 1, well a: 15940; Call: inactive

For CG42238, how do the results read?
induced reporter light, run 1, well a: 2.33e5; induced reporter light, run 1, well b: 2.07e5; control promoter light, run 1, well a: 1.64e5; control promoter light, run 1, well b: 1.64e5; uninduced reporter light, run 1, well a: 15090; Call: inactive
